# Results from PubChem BioAssay AID2685 (National Center for Advancing Translational Sciences (NCATS), 2010).
# Out of some 320,000 compounds screened, about 2,100 (0.66%) were called active. The shares of active, inactive and inconclusive entries below differ from those in the screen. Calls follow the shape of the dose curve; as a rule, active = well fitted inhibition curve with a large enough effect in the signal ratio, with a control signal flat (not every such curve was filed as active); inconclusive = small, poorly fitted or top-dose-only effect, or effect the other way, or a change in a side signal; inactive = flat fitted curve, though single readings scatter; the % refers to the signal ratio. Potencies beside an inconclusive call are fits to weak or partial responses and may not hold up.
# Experiment: qHTS Assay for Lipid Storage Modulators in Drosophila S3 Cells
# Details: BODIPY lipid droplet fluorescence, 18-24 h, cells fed with added oleic acid; lipid storage change, negative = inhibition: at 46.1 µM (top of the series) unless noted
# How it was run: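 Laser-scanning cytometry quantifies lipid droplet accumulation (500–530 nm total intensity; droplet/cell object ratio) in oleic acid-fed (400 uM added) Drosophila S3 cells treated with a concentration series. 20 uM Triacsin C defined 100% inhibition.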
# % is scaled to controls: 0 for no effect and ±100 for the full control effect; potency is read from the fitted curve at half-maximal effect.
SMILES,Potency,"lipid storage change, negative = inhibition"
O=C(/C=C/c1ccccc1)NCCc1cnc[nH]1,"inconclusive: 11.6 µM [falling, partial curve, poor fit]",
CCC(c1ccc(C)cc1)N1C(=O)C2C3CCC(O3)C2C1=O (stereo unspecified),,inconclusive: 3.35%
CCn1c(=O)n(CC(=O)N2CCC3(CC2)OCCO3)c(=O)c2ccccc21,,inconclusive: -11.8%
O=c1cccc2n1CC1CC2CN(S(=O)(=O)c2ccc(F)cc2)C1 (stereo unspecified),,inconclusive: 125%
CCOc1ccc(NC(=O)C2C3c4ccccc4C(c4ccccc43)C2C(=O)O)cc1 (stereo unspecified),,inconclusive: 0.26%
O=C1/C(=C\c2ccccc2)C2OCC=C3CN4CCC56c7ccccc7N1C5C2C3CC46 (stereo unspecified),,inconclusive: 3.86%
O=c1[nH]c(=S)[nH]c(O)c1N=Nc1ccc(OC(F)F)cc1,,inconclusive: -2.66%
CC12CN3CC(c4ccccc4)(CN(C1)C31CCCCC1)C2=O,,inconclusive: 1.79%
COc1ccccc1OP(=O)(Nc1ccc(Br)cc1)Oc1ccccc1OC,"inconclusive: 18.4 µM [falling, single point]",
COC(=O)C1=C(c2ccc(Cl)c(C(F)(F)F)c2)C[C@@H]2CC[C@H]1N2C(=O)N1CCOCC1,,inconclusive: 5.48%
CCC1(CCCC(=O)c2ccc(F)cc2)C(=O)NC(=S)NC1=O,,inconclusive: -0.831%
Cc1cc(C(=O)C[N+]23CCN(CC2)CC3)c(C)n1-c1ccc(Br)cc1,,inconclusive: -19.4%
CCN1CCN(c2ccc(N)c(C)c2)CC1,"inconclusive: 29.1 µM [rising, single point]",
CCCNC(=O)c1c(N)n(Cc2ccco2)c2nc3ccccc3nc12,"inconclusive: 10.3 µM [activator, partial curve]",
CC(=O)Nc1ccc(OC(=O)N(C)c2ccc(C)cc2)cc1,,inconclusive: 35.5%
CC(=O)O[C@@]12CO[C@@H]1C[C@H](OC1OCC(O)C(O)C1O)[C@@]1(C)C(=O)[C@H](O)C3=C(C)[C@@H](OC(=O)[C@H](O)[C@@H](NC(=O)c4ccccc4)c4ccccc4)C[C@@](O)([C@@H](OC(=O)c4ccccc4)C12)C3(C)C (stereo partly specified),,inconclusive: 68.3%
Cc1cc(C(=O)Nc2ccc3c(c2)OCCO3)nn1C(C)(C)C,,inconclusive: 9.86%
CCCCCn1c(=O)c(C(=O)NCCc2ccccc2)c(O)c2ccccc21,,inconclusive: 11.9%
c1ccc(-c2nc(N3CCOCC3)s[n+]2-c2ccccc2)cc1,,inconclusive: -4.66%
CC(C)OP(=O)(OC(C)C)C(NC(=O)c1cccc([N+](=O)[O-])c1)C(N)=O (stereo unspecified),"inconclusive: 1.46 µM [falling, partial curve, poor fit]",
COC(=O)C1=C(c2cccc(C#N)c2)C[C@@H]2CC[C@H]1N2C(=O)NCCc1ccccc1,"inconclusive: 20.6 µM [activator, single point]",
CN1CCN(c2ccc(NC(=O)Oc3ccccc3)cc2)CC1,"inconclusive: 3.26 µM [falling, full curve]",
CC1CCN(C(=O)CCNS(=O)(=O)c2ccc3c(c2)oc(=O)n3C)CC1,"inconclusive: 10.3 µM [activator, partial curve, poor fit]",

SMILES,Potency,"lipid storage change, negative = inhibition"
O=C(COc1ccc(Cl)cc1)N(c1ccccc1Cl)C1CN2CCC1CC2 (stereo unspecified),,inactive: 17.1%
CCCC/C(=N/O)c1c(C)[nH]c2ccccc12,,inconclusive: -21.3%
C[N+]12CCC(CC1)C(C(O)(c1ccccc1)c1cccs1)C2 (stereo unspecified),,inconclusive: -21.2%
COC(=O)C1=C(c2cccc(OCc3ccccc3)c2)C[C@@H]2CC[C@H]1N2C(=O)NCc1ccccc1,"inconclusive: 29.1 µM [falling, single point]",
c1ccc(Nc2ccc(Nc3ccccc3)cc2)cc1,,inconclusive: 7.01%
O=c1[nH]c(Cl)ccc1CN1CCOCC1,"inconclusive: 9.2 µM [activator, partial curve]",
Nc1ccc([N+](=O)[O-])cc1,"inconclusive: 0.146 µM [activator, single point]",
O=P(OCC(F)(F)C(F)F)(N1CCOCC1)N1CCOCC1,"inconclusive: 0.0052 µM [falling, full curve, poor fit]",
COC(=O)c1cccc(NC(=O)N2C[C@H]3C[C@@H](C2)c2cccc(=O)n2C3)c1,,inconclusive: 17.7%
O=C(CCC(=O)N1C[C@H]2C[C@@H](C1)c1cccc(=O)n1C2)NCc1ccccc1C(F)(F)F,"inconclusive: 18.4 µM [activator, partial curve, poor fit]",
CCc1ccc(NP(=O)(Oc2ccccc2F)Oc2ccccc2F)cc1,,inconclusive: 4.66%
Cc1cccc(NC(=O)N2CC3CC(C2)c2cccc(=O)n2C3)c1 (stereo unspecified),,inconclusive: 23.4%
O=C(Nc1ccccc1OC(=O)N1CCCCC1)N1CCCCC1,,inactive: 2.68%
CN(C)c1ccc(-[n+]2c(-c3ccccc3)cc(-c3ccccc3)cc2-c2ccccc2)cc1,"inconclusive: 6.51 µM [falling, partial curve, poor fit]",
CC(=O)c1ccc2c(c1)C1C(Cl)C(Sc3ccccc3[N+](=O)[O-])CC1C(C(=O)O)N2 (stereo unspecified),,inconclusive: 33%
Cc1cc(C)nc(NS(=O)(=O)c2ccc(NC(=O)Cn3c(=O)oc4ccccc43)cc2)n1,"inconclusive: 13 µM [activator, partial curve]",
CC12CN3CCN(CC(C3)C1O)C2 (stereo unspecified),"inconclusive: 6.51 µM [activator, single point]",
CN1C2CCC1CC(OC(=O)c1ccc(Cl)cc1)(C(=O)O)C2 (stereo unspecified),,inactive: -7.26%
[O-][n+]1onc2c1CCC1N(O)CCC21O (stereo unspecified),"inconclusive: 3.66 µM [falling, full curve]",
CCC(C)n1c(C)cc(C(N)=O)c1C (stereo unspecified),,inconclusive: -8.4%
Cc1ccc(C(C)C)c(OCC#CCN2CCCC2)c1,,inconclusive: 0.675%
CC12CC[C@H]3[C@@H](CCC4(O)C[C@H](O)CCC34/C=N/NC(=O)c3ccccc3O)C1(O)CCC2C1=CC(=O)OC1 (stereo partly specified),,inconclusive: -8.54%
OCC(Br)CBr (stereo unspecified),,inconclusive: 10.2%

# Entries listed so far that contain bromine (3):
SMILES,Potency,"lipid storage change, negative = inhibition"
COc1ccccc1OP(=O)(Nc1ccc(Br)cc1)Oc1ccccc1OC,"inconclusive: 18.4 µM [falling, single point]",
Cc1cc(C(=O)C[N+]23CCN(CC2)CC3)c(C)n1-c1ccc(Br)cc1,,inconclusive: -19.4%
OCC(Br)CBr (stereo unspecified),,inconclusive: 10.2%
